Data on one molecule can be found in patent US20260234207A1, “Keratin YK93-8, and Preparation Method Therefor, Pharmaceutical Composition Thereof and Use Thereof” (INSTITUTE OF MATERIA MEDICA, CHINESE ACADEMY OF MEDICAL …, priority 2022, published 2026).

The subject of the series is Lewis lung cancer. As to conditions: 0.5 g/kg, vs normal control group, P<0.05. On the procedure: Subcutaneous inoculation of Lewis cell suspension to replicate mouse Lewis lung cancer model: The Lewis tumor tissue was ground into a suspension with a glass homogenizer, the tumor suspension was aspirated with a syringe, the number of live cells was calculated, the concentration of the cells was adjusted to 2.6*10^6/ml with physiological saline, and then the suspension was injected to the left armpit of the mouse with 0.2 ml/mouse. On the next day, the mice were randomly divided into normal control group, cyclophosphamide (100 mg/kg) group, and YK93-8 (0.5 g/kg) group. Cyclophosphamide was injected intraperitoneally for single time, mice in YK93-8 group were given intragastric administration every day for 10 consecutive days, mice in the normal control group were orally given the equal volume of sodium carboxymethyl cellulose. On the day of the treatment, the weight was measured, 20 μl of blood was obtained from the orbital blood and the routine blood analysis was performed. The tumor blocks were stripped, weighed and photographed, and the tumor suppression rate was calculated.
The tumor suppression rate [(The average weight of the tumor in the normal control group—the average weight of the tumor in the experimental group)/The average weight of the tumor in the normal control group×100%] and the average value, standard deviation and standard errors of tumor weight were calculated.

B1: YK93-8: keratin with the amino acid sequence shown in SEQ ID NO.1, expressed in Escherichia coli, band around 63 KD; protein of Example 3 (protein, listed as Manis pentadactyla)
chain: MSCRSYRVSSGRQIGNFSSCSAVMPQSLSRFRASSVSCRSGPGFRGLGGFGSRSVIAFGSCPPRMAAVGPRPIRCGVGFSAGSGLAFGLGDSCGAGLGFGTGSGLGYGFGGPGFGYRIGGVGVPAAPSITAVTVNQSLLTPLNLEIDPNAQRVKRDEKEQIKTLNNKFASFIDKVRFLEQQNKLLETKWNFLQDQKGVQSNLEPLFENYVANLRRQLDIVSSDQARLETERNNMQDVLEGFKKKYEEEVVFRANAENEFVALKKDVDAAFLNKSDLEANVDALIQEIDFLKNLYMAEIQLLQSHISDTSVIVKMDNSRDLNFDGIIAEVKAQYEEVARRSRADAEAWYQTKYEEMRMTAGQHSDNLRNTRDEINELTRVIQRLKAEIEHTKAQRAKLEAAIAEAEQQGEAALNDAKCKLADLEAALQQAKQDMARQLREYQELMNIKLALDIEIATYRRLLEGEEIRICEGVGPVNISVSSSRGGVVCGPEPLLTSSTLSRGGVTFSGGSSIRSSGACGLSLGGSRVVAAGGDVLSAGSRGGSVLVGDACAPSIPCPLPTDGGFSSCSGGRSSLGSSVRFVSTTTSRRTKY
Regarding B1, the “number of monocytes in peripheral blood” value is “increase”. Also, the “number of neutrophils (blood routine test)” value (peripheral blood) is “significantly reduce”.
